Data on one substance can be found in article PMC6587950.

Sequences of proteins named here, by UniProt entry; tags and fusion partners are left off.
UniProt P22366: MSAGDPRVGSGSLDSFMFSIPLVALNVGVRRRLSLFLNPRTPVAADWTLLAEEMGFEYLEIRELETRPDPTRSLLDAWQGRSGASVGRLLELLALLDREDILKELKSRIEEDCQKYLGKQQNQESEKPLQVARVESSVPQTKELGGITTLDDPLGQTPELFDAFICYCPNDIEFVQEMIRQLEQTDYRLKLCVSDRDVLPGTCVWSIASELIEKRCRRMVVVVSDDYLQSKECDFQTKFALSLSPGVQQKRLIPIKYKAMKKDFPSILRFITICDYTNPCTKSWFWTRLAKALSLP

Results are given in words; binding and its absence hold for the method and conditions named. In cells and extracts the contact can be indirect. Some binding calls cover weakened binding; strength is not graded here.

This experiment has as its target T1, single Ig IL-1-related receptor (mouse (endogenous in RAW264.7)) (UniProt Q9JLZ8).
T1 sequence: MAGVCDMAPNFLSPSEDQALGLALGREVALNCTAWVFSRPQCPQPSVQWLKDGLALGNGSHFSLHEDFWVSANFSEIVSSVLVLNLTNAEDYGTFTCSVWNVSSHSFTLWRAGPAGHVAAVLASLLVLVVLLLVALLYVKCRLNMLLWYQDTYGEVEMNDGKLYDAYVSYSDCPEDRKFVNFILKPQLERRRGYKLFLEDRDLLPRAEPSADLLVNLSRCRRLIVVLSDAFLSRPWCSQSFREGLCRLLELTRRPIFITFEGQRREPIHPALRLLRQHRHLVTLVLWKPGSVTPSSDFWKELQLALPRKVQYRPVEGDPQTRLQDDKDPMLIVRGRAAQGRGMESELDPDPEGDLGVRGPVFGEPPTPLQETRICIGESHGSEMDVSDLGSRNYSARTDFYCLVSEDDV
Nature of the experiment: co-IP; RAW264.7 cells treated with M-CSF (50 ng/ml), RANKL (50 ng/ml) and IL-37b (200 ng/ml) for 48 hr; lysed in RIPA buffer; supernatant incubated with SIGIRR antibody (1:50) or mouse IgG overnight at 4°C, protein A/G magnetic beads 4 hr at 4°C; blot for SIGIRR, MyD88 and GAPDH.

Turning to “myeloid differentiation factor 88 (from UniProt P22366 1-296)”, the binding entry is “binds”.
